Screening data

The results are deposited in PubChem (AID1508628; NCATS, 2021).

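SH-SY5Y cells carrying a Gaussia luciferase SERCaMP reporter, pretreated 16 h, then given thapsigargin for 4 h; secreted reporter luminescence in the medium is measured.
A concentration series was tested, mostly reaching about 76 µM.
Potency is the concentration giving half of the fitted maximal drop in reporter secretion; lower values mean stronger potency.
Calls come from fitted curve class and an activity score, where scores of 1 to 39 are filed as inconclusive.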

Values are in µM.
Every entry below has the call inconclusive.
These entries are mostly ones the record files as inconclusive; other results of the assay are not listed here.
Potencies fitted to partial, single-point or poorly fitting curves are rough.
Some entries filed as inconclusive have a full curve.
Activity scores are not listed here.

structure: COc1ccccc1N1CCN(CCN2C(=O)c3ccccc3C(C)(C)C2=O)CC1
fitted potency (µM): 39.81
curve: inhibitor, partial curve

structure: c1ncc(CCCC2CCNCC2)[nH]1
fitted potency (µM): 44.67
curve: inhibitor, partial curve, poor fit

structure: CN1CCN(c2ncc3nc(-c4cccs4)c(=O)n(-c4ccccc4)c3n2)CC1
fitted potency (µM): 25.12
curve: inhibitor, full curve

structure: CC(C)N1CCN(c2ccc(C(=O)c3c(-c4ccc(O)cc4)sc4cc(O)ccc34)cc2)CC1
fitted potency (µM): 28.18
curve: inhibitor, full curve

structure: O=C(Nc1ncccn1)c1ccc([N+](=O)[O-])o1
fitted potency (µM): 68.52
curve: inhibitor, single point

structure: CCCCNc1ccc(C(=O)OCCN(C)C)cc1
fitted potency (µM): 31.62
curve: inhibitor, partial curve

structure: COCCn1c(=O)c(CCc2ccccc2)nc2cnc(N3CCNCC3)nc21
fitted potency (µM): 39.81
curve: inhibitor, partial curve, poor fit

structure: C1CCC[C@H]2CCCN3CC[C@H](CCCCCC[C@@H]4CCCN5CC[C@H](CC1)OC45)OC23
fitted potency (µM): 0.8913
curve: inhibitor, full curve, poor fit

structure: CN(C)CCCN1c2ccccc2Sc2ccccc21
fitted potency (µM): 39.81
curve: inhibitor, partial curve

structure: CCCN1CCc2cc(O)cc3c2[C@H]1Cc1ccc(O)c(O)c1-3
fitted potency (µM): 39.81
curve: inhibitor, partial curve, poor fit

structure: Cc1nc2sccn2c(=O)c1CCN1CCC(=C(c2ccc(F)cc2)c2ccc(F)cc2)CC1
fitted potency (µM): 10
curve: inhibitor, full curve

structure: CCCCCCC[n+]1ccc(-c2cc[n+](CCCCCCC)cc2)cc1
fitted potency (µM): 17.78
curve: inhibitor, partial curve, poor fit

structure: NC(=Nc1ccccc1)NC(=O)c1nc(Cl)c(N)nc1N
fitted potency (µM): 19.95
curve: inhibitor, full curve

structure: O=c1c(O)c(-c2ccc(O)c(O)c2)oc2cc(O)cc(O)c12
fitted potency (µM): 17.78
curve: inhibitor, partial curve, poor fit

structure: O=C(c1cc(C(F)(F)F)cc(C(F)(F)F)c1)N1CCC2(CC1)CCN(c1ccccn1)CC2
fitted potency (µM): 39.81
curve: inhibitor, partial curve

structure: O=C(Nc1cccc(C(=O)Nc2ccc(S(=O)(=O)O)c3cc(S(=O)(=O)O)cc(S(=O)(=O)O)c23)c1)Nc1cccc(C(=O)Nc2ccc(S(=O)(=O)O)c3cc(S(=O)(=O)O)cc(S(=O)(=O)O)c23)c1
fitted potency (µM): 50.12
curve: inhibitor, partial curve, poor fit

structure: Cn1c(=O)c(CCc2ccccc2)nc2cnc(OCc3ccccc3)nc21
fitted potency (µM): 39.81
curve: inhibitor, partial curve

Once more, the final 2:

structure,fitted potency (µM),curve
O=C(Nc1cccc(C(=O)Nc2ccc(S(=O)(=O)O)c3cc(S(=O)(=O)O)cc(S(=O)(=O)O)c23)c1)Nc1cccc(C(=O)Nc2ccc(S(=O)(=O)O)c3cc(S(=O)(=O)O)cc(S(=O)(=O)O)c23)c1,50.12,"inhibitor, partial curve, poor fit"
Cn1c(=O)c(CCc2ccccc2)nc2cnc(OCc3ccccc3)nc21,39.81,"inhibitor, partial curve"